These are yes or no findings as the source states them, for the method shown. In cells and extracts the contact can be indirect. Binding can be weak; no strength is given.
Target: T1, Vti1b-mCitrine (human) (UniProt Q9UEU0)
T1 sequence: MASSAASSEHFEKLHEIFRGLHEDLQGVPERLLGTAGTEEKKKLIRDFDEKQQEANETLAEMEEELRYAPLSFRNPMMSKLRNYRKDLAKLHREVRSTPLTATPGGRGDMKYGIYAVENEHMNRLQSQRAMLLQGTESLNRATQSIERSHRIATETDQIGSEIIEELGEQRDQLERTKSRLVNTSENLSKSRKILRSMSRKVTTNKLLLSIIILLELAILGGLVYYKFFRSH
Assay: co-IP

Row | binding | Substance
1 | binds | His6-Ii p33 wt
2 | binds | His6-Ii Δ27 (domain or fragment)
